PubChem BioAssay AID1508597 – Cure First | 2020
Screen: 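Genes whose silencing sensitises or protects ovarian cancer cells against rucaparib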 (primary screen). System: human ovarian carcinoma lines grown from tumours: OCI-P5x (papillary serous) and OCI-C5x (clear cell). Reagent: siRNA pool against human genes, 1.25 pmol siRNA per well. Timing: 72 h or 96 h, depending on the cell culture. Challenge: rucaparib 20 µM (about IC30) or vehicle, present until read-out. Rucaparib or vehicle: Rucaparib. Cell line: OCI-P5x (serous). Measurement: 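Luminescent ATP-based viability assay read 72 or 96 h after transfection, depending on culture, given as normalised percent viability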. Reading the numbers: viability, normalised: higher = more viable cells remaining. Hit rule: 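Active when normalised viability falls below 80 percent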. Calls: active = viability under 80%; inactive = viability 80% or more.
Shown is a random part of the about 2,100 reagents, under one of the conditions tested. 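Calls flag viability under 80% in either arm, not effects specific to rucaparib; the reference for percent is not stated.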 A number with no mark means an inactive call. Reagents against one gene are numbered here. A reagent listed more than once was tested more than once; the source does not tell the runs apart. Not given: the 100% reference.

target gene	reagent no.	technical replicate	viability, normalised (%)
MBTD1	1	1	39.2 (active)
MBTD1	1	2	40.9 (active)
MBTD1	1	3	50.5 (active)
TOP2A	1	1	79.7 (active)
TOP2A	1	2	73 (active)
TOP2A	1	3	68.3 (active)
PRKD3	1	1	65.4 (active)
PRKD3	1	2	55 (active)
PRKD3	1	3	83.1
FER	1	1	83.9
FER	1	2	89.6
FER	1	3	75.8 (active)
HELQ	1	1	75.8 (active)
HELQ	1	2	66.3 (active)
HELQ	1	3	80.8
HELQ	2	1	80.7
HELQ	2	2	72.5 (active)
HELQ	2	3	66.4 (active)
TDRD1	1	1	47.5 (active)
TDRD1	1	2	77.9 (active)
TDRD1	1	3	62.4 (active)
XAB2	1	1	53.1 (active)
XAB2	1	2	51.5 (active)
XAB2	1	3	48.9 (active)
CLK2	1	1	103
CLK2	1	1	95.9
CLK2	1	2	117
CLK2	1	2	104
CLK2	1	3	78.6 (active)
CLK2	1	3	87.4
TLR8	1	1	58.3 (active)
TLR8	1	2	57 (active)
TLR8	1	3	53.7 (active)
PFKFB4	1	1	90.3
PFKFB4	1	2	75.7 (active)
PFKFB4	1	3	80.6
MLH3	1	1	79.2 (active)
MLH3	1	2	90.2
MLH3	1	3	60.2 (active)
